In patent US8841077B2, “Biomarkers for amyotrophic lateral sclerosis and methods using the same” (Massachusetts General Hospital, priority 2006, dated 2014):

Assay: Metabolomic profiling of blood plasma, 62 ALS subjects vs 62 control subjects (Example 3; Tables 7, 8)
Format: in vivo, human
[1] = blood plasma, ALS mean level compared to control mean level, positive = increase in ALS
[2] = blood plasma, ALS mean level vs control mean level, 62 ALS vs 62 control subjects, analytical platform GC-MS
[3] = blood plasma, ALS mean level vs control mean level, 62 ALS vs 62 control subjects, analytical platform LC-MS

| SMILES | % change in ALS [1] [%] | % change in ALS [2] [%] | % change in ALS [3] [%] | % change in ALS (human, in vivo) [%] |
| --- | --- | --- | --- | --- |
| OC[C@@H](O)[C@@H](O)[C@H](O)[C@H](O)CO [Mannitol] | 38 | 38 | – | – |
| COc1ccc2[nH]cc(CCNC(C)=O)c2c1 [Melatonin] | −4 | −4 | – | – |
| O=C(O)C(=O)CS [Mercaptopyruvate] | −23 | – | −23 | – |
| O=c1[nH]cnc2nc[nH]c12 [Metabolite 1-7-dihydro-6h-purin-6-one] | −15 | – | −15 | – |
| CCCCCCCCCCCCCCCCO [Metabolite 1-Hexadecanol, 1-Hexadecanol] | −16 | −16 | – | – |
| Cn1cnc2ncnc-2c1N [Metabolite 1-methyladenine, 1-methyladenine] | −16 | −16 | – | – |
| CCC(N)C(=O)O (centres unmarked) [Metabolite 2-amino-butyrate, 2-amino-butyrate] | 1 | – | – | – |
| O=CC[C@@H](O)[C@H](O)[C@H](O)CO [Metabolite 2-deoxy-D-glucose, 2-deoxy-D-glucose] | 22 | 22 | – | – |
| O=c1[nH]cnc2c1ncn2[C@H]1C[C@H](O)[C@@H](CO)O1 [Metabolite 2-deoxyinosine] | 293 | – | 293 | – |
| CC(CN)C(=O)O (centres unmarked) [Metabolite 3-amino-isobutyrate, 3-amino-isobutyrate] | −7 | −7 | – | – |
| N[C@@H](Cc1ccc(O)c(Cl)c1)C(=O)O [Metabolite 3-chloro-L-tyrosine, 3-chloro-L-tyrosine] | 1 | – | – | – |
| Cn1cncc1C[C@H](N)C(=O)O [Metabolite 3-methyl-L-histidine, 3-methyl-L-histidine] | 12 | – | 12 | – |
| N[C@@H](Cc1ccc(O)c([N+](=O)[O-])c1)C(=O)O [Metabolite 3-nitro-L-tyrosine, 3-nitro-L-tyrosine] | −5 | −5 | – | – |
| O=C(O)[C@H](O)COP(=O)(O)O [Metabolite 3-phospho-d-glycerate, 3-phospho-d-glycerate] | −1 | – | – | – |
| O=C(O)Cc1ccc(O)cc1 [Metabolite 4-hydroxyphenylacetate, 4-hydroxyphenylacetate] | −21 | – | −21 | – |
| CC(C)CC(=O)C(=O)O [Metabolite 4-methyl-2-oxopentanoate, 4-methyl-2-oxopentanoate] | −12 | −12 | – | – |
| Cc1cc2nc[nH]c2cc1C [Metabolite 5-6-Dimethylbenzimidazole-] | 2 | – | – | – |
| O=C(O)Cc1c[nH]c2ccc(O)cc12 [Metabolite 5-hydroxyindoleacetate, 5-hydroxyindoleacetate] | 11 | 11 | – | – |
| NCC(O)CC[C@H](N)C(=O)O (some centres unmarked) [Metabolite 5-hydroxylysine, 5-hydroxylysine] | −24 | – | −24 | – |
| O=C1CC[C@@H](C(=O)O)N1 [Metabolite 5-oxoproline, 5-oxoproline] | −2 | −2 | – | – |

| SMILES | % change in ALS [1] [%] | % change in ALS [2] [%] | % change in ALS [3] [%] | % change in ALS (human, in vivo) [%] |
| --- | --- | --- | --- | --- |
| C[C@H](CCCC(C)(C)O)[C@H]1CC[C@H]2[C@@H]3CC=C4C[C@@H](O)CC[C@]4(C)[C@H]3CC[C@]12C [Metabolite 25-hydroxycholesterol, 25-hydroxycholesterol] | 3 | 3 | – | – |
| O=c1[nH]cnc2nc[nH]c12 [Metabolite - 1458 retired: hypoxanthine] | 3 | – | 3 | – |
| O=C(O)C(=O)O [Metabolite - 1829 retired: oxalic acid] | 8 | – | 8 | – |
| CC(C)C[C@H](NC(=O)CC[C@H](N)C(=O)O)C(=O)O [Metabolite - 2306 retired: gamma glu leu] | 6 | – | 6 | – |
| CC(C)C[C@H](NC(=O)CC[C@H](N)C(=O)O)C(=O)O [Metabolite - 2387 retired: gamma glu leu] | 63 | – | 63 | – |
| CC(O)C(=O)O (centres unmarked) [Metabolite - 2563 retired: lactate] | −1 | – | – | – |
| CC(O)C(=O)O (centres unmarked) [Metabolite - 2694 retired: lactate] | −3 | – | −3 | – |
| O=C(O)[C@@H](O)[C@H](O)CO [Metabolite - 3020 retired: threonic acid] | – | – | – | 2 |
| N=C(N)NCCC[C@H](N)C(=O)O [Metabolite - 3027 retired: arginine] | −8 | −8 | – | – |
| O[C@H]1[C@H](O)[C@@H](O)[C@H](O)[C@@H](O)[C@H]1O [Metabolite - 3085 retired: inositol] | 4 | 4 | – | – |
| CC(O)C(=O)O (centres unmarked) [Metabolite - 3316 retired: lactate] | −2 | – | – | – |
| O=C(O)CNC(=O)c1ccccc1 [Metabolite - 3604 retired: CL adduct of hippuric acid] | 1 | – | – | – |
| O=C(O)CCCCCCCC(=O)O [Metabolite - 3881 retired: azelaic acid] | −29 | – | −29 | – |
| O=C1CC[C@@H](C(=O)O)N1 [Metabolite - 3894 retired: pyroglutamic acid (5-oxoproline)-] | 4 | – | 4 | – |
| NCCCC[C@H](N)C(=O)O [Metabolite - 4032 retired: lysine] | −16 | −16 | – | – |
| NCCCC[C@H](N)C(=O)O [Metabolite - 4043 retired: lysine] | 15 | 15 | – | – |
| C[N+](C)(C)CCCC[C@H](N)C(=O)[O-] [Metabolite N-6-trimethyl-l-lysine] | −34 | – | −34 | – |
| CN(C)C(N)=NCCC[C@H](N)C(=O)O [N-N-dimethylarginine] | −8 | – | −8 | – |
| CC(=O)N[C@@H](C)C(=O)O [N-acetyl-L-alanine] | 3 | 3 | – | – |
| CC(=O)N[C@H]1[C@H]([C@@H](O)[C@@H](O)CO)O[C@@](O)(C(=O)O)C[C@@H]1O [N-acetylneuraminate] | −8 | −8 | – | – |

| SMILES | % change in ALS [1] [%] | % change in ALS [2] [%] | % change in ALS [3] [%] | % change in ALS (human, in vivo) [%] |
| --- | --- | --- | --- | --- |
| CC(=O)NCCc1c[nH]c2ccc(O)cc12 [N-acetylserotonin] | −8 | −8 | – | – |
| NC(=O)N[C@@H](CC(=O)O)C(=O)O [N-carbamoyl-L-aspartate] | 54 | – | 54 | – |
| NC(=O)c1cccnc1 [Niacinamide] | 14 | – | 14 | – |
| COc1cc(C(O)CN)ccc1O (centres unmarked) [Normetanephrine] | 23 | 23 | – | – |
| NCC(O)c1ccc(O)cc1 (centres unmarked) [Octopamine] | −2 | −2 | – | – |
| N[C@@H](Cc1c[nH]c2ccc(O)cc12)C(=O)O [Oxitryptan] | −7 | – | −7 | – |
| Cc1ncc(CO)c(CN)c1O [Pyridoxamine] | −3 | – | −3 | – |
| N[C@@H](C[Se][Se]C[C@H](N)C(=O)O)C(=O)O [Selenocystine] | 19 | – | 19 | – |
| NCCc1c[nH]c2ccc(O)cc12 [Serotonin] | 11 | – | 11 | – |
| NCCc1c[nH]c2ccccc12 [Tryptamine] | 5 | 5 | – | – |
| NCCc1ccc(O)cc1 [Tyramine] | 15 | 15 | – | – |
| OC[C@@H](O)[C@H](O)[C@@H](O)CO [Xylitol] | 7 | – | 7 | – |
| O=C(O)C(O)Cc1ccc(O)cc1 (stereo not drawn) [alpha-4-dihydroxybenzenepropanoic acid] | −29 | −29 | – | – |
| O=P(O)(O)OC[C@H]1O[C@H](O)[C@H](O)[C@@H]1O [alpha-D-ribose-5-phosphate] | 22 | – | 22 | – |
| OC[C@@]1(O)OC[C@H](O)[C@@H](O)[C@@H]1O [alpha-L-sorbopyranose] | 2 | – | – | – |
| Nc1ccccc1C(=O)O [anthranilic acid] | −15 | −15 | – | – |
| O=C1O[C@H]([C@@H](O)CO)C(O)=C1O [ascorbic acid] | −12 | – | −12 | – |
| N[C@H](CCC[C@H](N)C(=O)O)C(=O)O [diaminopimelic acid] | 7 | – | 7 | – |
